No constants are given. Whether binding was seen depends on the method and setting. In cells and extracts the contact can be indirect. Here binding means that the protein was enriched with, or labelled near, the bait; the list need not be complete. For some of these results: No binding means not detected with the bait. Sequences can lack the tags named with a protein.
Tests used:
[1] = target: T1, SH-tagged MANF (pre-SH-MANF), expressed in INS1 cells (human) (UniProt P55145); assay: affinity purification with mass spectrometry; SH-tagged MANF as bait from doxycycline-induced INS1 pre-SH-MANF cells; HENN lysis buffer; Strep-Tactin beads, biotin elution; GFP-SH cells as negative control; FDR <= 0.001, s0 = 2
T1 sequence: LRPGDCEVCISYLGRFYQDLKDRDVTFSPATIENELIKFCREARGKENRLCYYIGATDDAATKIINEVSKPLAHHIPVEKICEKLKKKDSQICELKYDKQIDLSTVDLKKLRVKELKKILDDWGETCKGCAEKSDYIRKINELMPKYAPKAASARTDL

The chains behind the UniProt entries cited, without tags or fusion partners. Residues count along the entry.
UniProt Q3T1J1: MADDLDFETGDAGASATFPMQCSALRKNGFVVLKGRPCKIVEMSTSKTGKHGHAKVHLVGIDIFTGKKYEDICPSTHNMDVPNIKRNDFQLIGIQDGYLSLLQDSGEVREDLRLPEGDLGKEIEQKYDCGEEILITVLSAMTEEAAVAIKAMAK
UniProt P63039, residues 27-573: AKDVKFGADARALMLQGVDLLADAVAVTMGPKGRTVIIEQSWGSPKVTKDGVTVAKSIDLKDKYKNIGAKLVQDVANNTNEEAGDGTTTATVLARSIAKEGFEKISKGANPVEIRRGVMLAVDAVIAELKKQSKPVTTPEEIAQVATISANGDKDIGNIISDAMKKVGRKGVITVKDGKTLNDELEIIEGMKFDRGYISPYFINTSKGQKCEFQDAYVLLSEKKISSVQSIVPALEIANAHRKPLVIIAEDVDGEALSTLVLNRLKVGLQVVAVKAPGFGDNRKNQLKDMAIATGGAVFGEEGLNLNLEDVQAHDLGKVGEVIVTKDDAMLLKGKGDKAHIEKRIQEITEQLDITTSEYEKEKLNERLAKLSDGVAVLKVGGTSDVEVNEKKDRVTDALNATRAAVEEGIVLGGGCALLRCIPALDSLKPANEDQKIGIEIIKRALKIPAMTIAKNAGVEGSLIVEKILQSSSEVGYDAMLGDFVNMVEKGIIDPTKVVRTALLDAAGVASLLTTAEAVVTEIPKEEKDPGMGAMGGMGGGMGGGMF
UniProt Q92598: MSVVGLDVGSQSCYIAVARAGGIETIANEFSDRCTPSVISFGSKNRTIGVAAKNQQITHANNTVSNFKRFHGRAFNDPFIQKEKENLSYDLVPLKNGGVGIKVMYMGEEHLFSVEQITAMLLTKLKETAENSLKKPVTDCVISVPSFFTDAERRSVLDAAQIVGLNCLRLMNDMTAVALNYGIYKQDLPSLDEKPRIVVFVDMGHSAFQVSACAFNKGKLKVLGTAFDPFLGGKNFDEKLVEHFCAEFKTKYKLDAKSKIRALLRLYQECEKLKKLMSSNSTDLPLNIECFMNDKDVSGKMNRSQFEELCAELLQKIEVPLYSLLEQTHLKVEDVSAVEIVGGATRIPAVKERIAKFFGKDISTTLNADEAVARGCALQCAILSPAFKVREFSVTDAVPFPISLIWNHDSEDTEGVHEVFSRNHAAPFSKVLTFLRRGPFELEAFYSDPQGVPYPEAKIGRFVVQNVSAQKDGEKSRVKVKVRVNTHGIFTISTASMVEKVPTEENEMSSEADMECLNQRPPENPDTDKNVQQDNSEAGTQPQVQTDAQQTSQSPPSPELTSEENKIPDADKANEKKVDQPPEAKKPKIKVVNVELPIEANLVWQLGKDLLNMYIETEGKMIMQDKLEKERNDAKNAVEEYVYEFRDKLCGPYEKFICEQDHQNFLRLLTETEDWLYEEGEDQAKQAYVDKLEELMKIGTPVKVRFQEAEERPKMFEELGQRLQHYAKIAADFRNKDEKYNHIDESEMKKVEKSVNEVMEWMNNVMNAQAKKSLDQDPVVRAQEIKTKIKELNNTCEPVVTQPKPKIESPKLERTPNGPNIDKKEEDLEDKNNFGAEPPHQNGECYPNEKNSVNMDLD
UniProt P11021, residues 19-654: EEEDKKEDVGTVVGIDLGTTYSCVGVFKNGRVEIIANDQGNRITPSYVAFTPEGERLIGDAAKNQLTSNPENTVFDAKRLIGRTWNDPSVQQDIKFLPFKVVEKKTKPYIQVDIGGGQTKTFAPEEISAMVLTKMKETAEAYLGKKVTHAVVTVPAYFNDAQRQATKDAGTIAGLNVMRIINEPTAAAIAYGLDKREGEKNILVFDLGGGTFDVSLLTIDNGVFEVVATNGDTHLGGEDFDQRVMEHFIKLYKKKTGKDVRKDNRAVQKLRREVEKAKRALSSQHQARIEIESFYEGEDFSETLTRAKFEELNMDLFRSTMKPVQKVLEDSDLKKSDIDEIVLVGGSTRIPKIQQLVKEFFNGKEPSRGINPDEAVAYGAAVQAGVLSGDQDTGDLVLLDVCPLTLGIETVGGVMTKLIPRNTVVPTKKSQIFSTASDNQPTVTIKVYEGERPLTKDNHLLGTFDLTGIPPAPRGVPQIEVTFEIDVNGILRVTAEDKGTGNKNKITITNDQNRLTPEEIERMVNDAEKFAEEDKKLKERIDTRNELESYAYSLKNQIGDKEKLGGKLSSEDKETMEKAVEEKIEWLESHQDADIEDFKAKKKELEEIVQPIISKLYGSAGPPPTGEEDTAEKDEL
UniProt Q6P3V8: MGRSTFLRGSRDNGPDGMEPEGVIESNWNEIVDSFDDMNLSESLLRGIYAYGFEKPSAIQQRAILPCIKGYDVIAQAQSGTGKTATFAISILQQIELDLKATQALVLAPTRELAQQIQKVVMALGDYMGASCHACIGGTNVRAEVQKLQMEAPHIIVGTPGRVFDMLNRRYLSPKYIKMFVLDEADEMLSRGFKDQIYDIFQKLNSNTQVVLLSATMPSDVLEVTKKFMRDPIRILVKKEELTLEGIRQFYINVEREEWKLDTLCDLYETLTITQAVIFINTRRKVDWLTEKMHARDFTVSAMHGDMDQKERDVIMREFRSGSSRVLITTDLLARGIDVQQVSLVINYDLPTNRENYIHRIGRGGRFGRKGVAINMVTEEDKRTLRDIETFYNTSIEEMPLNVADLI
UniProt P30101, residues 25-505: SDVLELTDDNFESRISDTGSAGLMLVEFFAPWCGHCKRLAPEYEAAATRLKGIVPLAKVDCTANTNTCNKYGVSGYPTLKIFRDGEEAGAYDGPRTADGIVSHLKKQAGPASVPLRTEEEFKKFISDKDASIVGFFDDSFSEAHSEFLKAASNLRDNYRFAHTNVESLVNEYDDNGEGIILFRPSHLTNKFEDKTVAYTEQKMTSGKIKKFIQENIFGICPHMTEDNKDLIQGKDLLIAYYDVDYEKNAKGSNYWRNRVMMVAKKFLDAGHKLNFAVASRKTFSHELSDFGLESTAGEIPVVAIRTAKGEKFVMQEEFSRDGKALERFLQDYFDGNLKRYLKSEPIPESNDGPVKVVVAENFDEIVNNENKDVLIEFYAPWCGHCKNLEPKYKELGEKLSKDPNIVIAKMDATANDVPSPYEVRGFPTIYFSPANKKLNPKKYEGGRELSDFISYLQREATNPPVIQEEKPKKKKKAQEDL
UniProt P04764: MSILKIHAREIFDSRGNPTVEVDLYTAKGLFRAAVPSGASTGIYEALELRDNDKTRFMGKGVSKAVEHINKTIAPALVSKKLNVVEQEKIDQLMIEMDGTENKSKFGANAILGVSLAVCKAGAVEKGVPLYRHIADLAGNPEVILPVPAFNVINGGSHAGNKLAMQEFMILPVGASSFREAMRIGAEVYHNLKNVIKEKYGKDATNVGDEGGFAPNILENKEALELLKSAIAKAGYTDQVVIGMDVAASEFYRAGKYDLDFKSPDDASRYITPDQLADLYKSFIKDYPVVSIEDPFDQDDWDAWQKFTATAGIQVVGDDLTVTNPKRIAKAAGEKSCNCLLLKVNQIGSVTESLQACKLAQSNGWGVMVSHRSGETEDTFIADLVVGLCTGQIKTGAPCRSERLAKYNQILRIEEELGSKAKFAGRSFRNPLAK
UniProt P25235, residues 23-631: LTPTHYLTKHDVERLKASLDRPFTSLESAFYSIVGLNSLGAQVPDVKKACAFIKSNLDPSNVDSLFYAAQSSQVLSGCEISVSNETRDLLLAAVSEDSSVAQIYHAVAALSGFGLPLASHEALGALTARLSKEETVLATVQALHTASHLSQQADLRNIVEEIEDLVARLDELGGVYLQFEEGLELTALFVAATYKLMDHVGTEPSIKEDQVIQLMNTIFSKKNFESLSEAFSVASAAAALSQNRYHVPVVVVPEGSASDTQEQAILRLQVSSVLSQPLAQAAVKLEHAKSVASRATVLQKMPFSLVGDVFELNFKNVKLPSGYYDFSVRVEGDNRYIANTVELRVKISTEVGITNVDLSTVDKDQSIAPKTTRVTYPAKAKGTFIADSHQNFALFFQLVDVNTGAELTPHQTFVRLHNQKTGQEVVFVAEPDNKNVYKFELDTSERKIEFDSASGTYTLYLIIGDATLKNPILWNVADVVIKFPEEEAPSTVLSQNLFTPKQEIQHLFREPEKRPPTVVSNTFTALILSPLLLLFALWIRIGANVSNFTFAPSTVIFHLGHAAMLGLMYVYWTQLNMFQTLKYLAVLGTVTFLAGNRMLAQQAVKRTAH
UniProt Q66HD0, residues 22-804: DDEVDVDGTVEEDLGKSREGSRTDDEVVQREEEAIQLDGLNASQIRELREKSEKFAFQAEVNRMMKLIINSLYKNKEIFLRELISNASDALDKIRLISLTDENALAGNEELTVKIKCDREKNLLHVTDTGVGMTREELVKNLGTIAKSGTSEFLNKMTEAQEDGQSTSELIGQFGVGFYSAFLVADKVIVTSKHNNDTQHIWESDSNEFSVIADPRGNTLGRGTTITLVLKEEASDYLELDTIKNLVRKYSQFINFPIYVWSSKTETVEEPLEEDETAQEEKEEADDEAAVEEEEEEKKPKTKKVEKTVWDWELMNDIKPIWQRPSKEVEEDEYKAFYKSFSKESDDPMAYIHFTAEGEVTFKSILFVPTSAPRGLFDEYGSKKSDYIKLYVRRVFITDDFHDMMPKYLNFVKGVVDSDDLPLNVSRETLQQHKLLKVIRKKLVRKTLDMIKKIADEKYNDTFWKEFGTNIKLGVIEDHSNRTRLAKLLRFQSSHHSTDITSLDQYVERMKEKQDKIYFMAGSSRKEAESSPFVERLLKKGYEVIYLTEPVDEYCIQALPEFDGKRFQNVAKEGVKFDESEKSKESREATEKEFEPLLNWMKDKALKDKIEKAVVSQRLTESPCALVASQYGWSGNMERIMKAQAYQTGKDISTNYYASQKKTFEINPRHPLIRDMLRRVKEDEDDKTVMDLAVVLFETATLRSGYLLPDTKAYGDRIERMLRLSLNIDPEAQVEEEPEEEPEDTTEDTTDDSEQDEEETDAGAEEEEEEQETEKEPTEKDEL
UniProt Q00981: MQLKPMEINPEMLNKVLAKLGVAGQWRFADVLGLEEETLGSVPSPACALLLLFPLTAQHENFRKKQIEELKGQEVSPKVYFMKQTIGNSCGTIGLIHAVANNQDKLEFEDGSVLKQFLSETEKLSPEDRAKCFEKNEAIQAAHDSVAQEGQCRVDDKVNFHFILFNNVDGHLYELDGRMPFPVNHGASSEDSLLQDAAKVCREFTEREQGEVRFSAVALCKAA
UniProt P07335: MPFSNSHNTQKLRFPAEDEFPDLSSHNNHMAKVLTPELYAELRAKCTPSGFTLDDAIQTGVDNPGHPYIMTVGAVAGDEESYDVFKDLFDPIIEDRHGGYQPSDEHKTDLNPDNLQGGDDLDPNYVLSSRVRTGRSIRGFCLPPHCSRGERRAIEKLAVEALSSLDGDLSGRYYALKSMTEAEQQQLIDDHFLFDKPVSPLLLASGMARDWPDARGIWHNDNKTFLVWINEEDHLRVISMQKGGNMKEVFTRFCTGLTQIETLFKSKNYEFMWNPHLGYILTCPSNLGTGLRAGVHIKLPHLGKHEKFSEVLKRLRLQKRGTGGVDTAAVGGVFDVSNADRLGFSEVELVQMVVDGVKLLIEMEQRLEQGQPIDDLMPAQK
UniProt P27824, residues 21-592: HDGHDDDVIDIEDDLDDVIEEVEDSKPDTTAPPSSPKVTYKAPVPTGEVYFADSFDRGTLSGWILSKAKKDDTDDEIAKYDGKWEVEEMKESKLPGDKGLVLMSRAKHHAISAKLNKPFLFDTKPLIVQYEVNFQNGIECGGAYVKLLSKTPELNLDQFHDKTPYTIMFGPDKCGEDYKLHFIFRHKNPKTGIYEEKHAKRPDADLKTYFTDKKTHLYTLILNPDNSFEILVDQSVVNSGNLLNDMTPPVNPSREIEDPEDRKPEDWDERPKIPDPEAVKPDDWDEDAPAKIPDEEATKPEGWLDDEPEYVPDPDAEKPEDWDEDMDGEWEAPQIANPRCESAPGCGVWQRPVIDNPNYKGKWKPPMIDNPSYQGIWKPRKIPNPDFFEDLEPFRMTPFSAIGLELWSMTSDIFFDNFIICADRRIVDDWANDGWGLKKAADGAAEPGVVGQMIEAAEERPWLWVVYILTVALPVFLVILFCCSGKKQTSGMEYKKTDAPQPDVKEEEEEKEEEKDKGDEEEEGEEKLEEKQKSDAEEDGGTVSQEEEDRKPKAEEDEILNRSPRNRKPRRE
UniProt P52555, residues 33-260: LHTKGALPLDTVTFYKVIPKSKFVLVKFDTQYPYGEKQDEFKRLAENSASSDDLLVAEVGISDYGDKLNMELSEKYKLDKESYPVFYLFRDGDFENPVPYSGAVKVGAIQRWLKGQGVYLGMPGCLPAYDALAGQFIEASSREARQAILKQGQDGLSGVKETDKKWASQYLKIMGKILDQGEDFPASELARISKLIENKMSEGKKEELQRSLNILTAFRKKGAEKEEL
UniProt P18669: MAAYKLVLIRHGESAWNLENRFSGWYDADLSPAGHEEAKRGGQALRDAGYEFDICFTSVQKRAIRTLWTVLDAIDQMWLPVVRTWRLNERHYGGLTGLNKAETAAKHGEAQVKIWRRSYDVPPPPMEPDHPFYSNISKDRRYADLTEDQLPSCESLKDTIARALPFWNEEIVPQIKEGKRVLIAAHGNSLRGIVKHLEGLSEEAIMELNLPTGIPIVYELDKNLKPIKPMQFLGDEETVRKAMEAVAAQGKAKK

[2] = target: T2, SH-tagged MANF (pre-SH-MANF), expressed in HEK293 cells (human) (UniProt P55145); assay: affinity purification with mass spectrometry; SH-tagged MANF as bait from doxycycline-induced HEK293 pre-SH-MANF cells; HENN lysis buffer (50 mM Hepes-NaOH pH 8.0, 5 mM EDTA, 150 mM NaCl, 50 mM NaF, 0.5% NP40); Strep-Tactin beads, biotin elution; GFP-SH cells as negative control; FDR <= 0.001, s0 = 2
T2 sequence: T1 sequence

binding [1]	binding [2]	Substance
binds	–	IF5A1, endogenous in INS1 (from UniProt Q3T1J1 1-154)
–	binds	eukaryotic translation initiation factor 5A-1 (IF5A1), endogenous in HEK293 (from UniProt P63241 1-154)
binds	–	60 kDa heat shock protein (CH60), endogenous in INS1 (from UniProt P63039 27-573)
binds	–	ras-related protein Rab-14, endogenous in INS1 (from UniProt P61107 1-215)
–	binds	GRP94, endogenous in HEK293 (from UniProt P14625 22-803)
–	binds	ENOA, endogenous in HEK293 (from UniProt P06733 1-434)
–	binds	HS105, endogenous in HEK293 (from UniProt Q92598 1-858)
–	binds	glucose-regulated protein 78 (GRP78), endogenous in HEK293 (from UniProt P11021 19-654)
binds	–	IF4A1, endogenous in INS1 (from UniProt Q6P3V8 1-407)
–	binds	KCRB, endogenous in HEK293 (from UniProt P12277 1-381)
binds	–	PDIA1, endogenous in INS1 (from UniProt P04785 20-509)
–	binds	protein disulfide isomerase family A member 3, endogenous in HEK293 (from UniProt P30101 25-505)
binds	–	ras-related protein Rab-1B, endogenous in INS1 (from UniProt P10536 1-201)
binds	–	ENOA, endogenous in INS1 (from UniProt P04764 1-434)
binds	–	ribophorin 2, endogenous in INS1 (from UniProt P25235 23-631)
no binding	–	GRP94, endogenous in INS1 (from UniProt Q66HD0 22-804)
–	binds	60 kDa heat shock protein (CH60), endogenous in HEK293 (from UniProt P10809 27-573)
binds	–	ubiquitin carboxyl-terminal hydrolase isozyme L1, endogenous in INS1 (from UniProt Q00981 1-223)
binds	–	membrane-associated progesterone receptor component 1, endogenous in INS1 (from UniProt P70580 1-195)
–	binds	protein disulfide isomerase family A member 1 (PDIA1), endogenous in HEK293 (from UniProt P07237 18-508)
binds	–	KCRB, endogenous in INS1 (from UniProt P07335 1-381)
–	binds	calnexin, endogenous in HEK293 (from UniProt P27824 21-592)
–	binds	IF4A1, endogenous in HEK293 (from UniProt P60842 1-406)
binds	–	endoplasmic reticulum resident protein 29, endogenous in INS1 (from UniProt P52555 33-260)
–	binds	PGAM1, endogenous in HEK293 (from UniProt P18669 1-254)

From publication PMC7949057, “The cytoprotective protein MANF promotes neuronal survival independently from its role as a GRP78 cofactor” (The Journal of Biological Chemistry, 2021)
